Test results: PubChem BioAssay AID1794845 (National Center for Advancing Translational Sciences (NCATS), 2023)
The campaign covered roughly 6,900 compounds. Fewer than 10 were called active. Calls follow the shape of the dose curve; as a rule, active = well fitted curve in the direction sought with a large enough effect; inconclusive = small, poorly fitted or top-dose-only effect, or another doubt; inactive = no such curve, though single readings can be large or run the other way. The list shows a part of the results.

Sequences of proteins named here, by UniProt entry; tags and fusion partners are left off. A change or cut given only in a name is not applied to a line headed by its entry.
UniProt C7C422: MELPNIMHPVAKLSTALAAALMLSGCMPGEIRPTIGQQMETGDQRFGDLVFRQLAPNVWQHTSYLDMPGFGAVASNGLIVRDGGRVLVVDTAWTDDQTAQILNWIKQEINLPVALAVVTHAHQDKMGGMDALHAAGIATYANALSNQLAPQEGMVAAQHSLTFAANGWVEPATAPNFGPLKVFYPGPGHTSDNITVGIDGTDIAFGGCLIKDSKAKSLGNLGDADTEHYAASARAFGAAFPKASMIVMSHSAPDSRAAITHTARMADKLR

These compounds were tested against Metallo-beta-lactamase type 2 (Klebsiella pneumoniae) (UniProt C7C422) (assay: qHTS to identify inhibitors of the New Delhi Metallo-beta-lactamase (NDM): primary screen against the NCATS Gemini Collection). Settings: NDM-1 enzyme, meropenem hydrolysis, absorbance 300 nm; at 38.4 µM (top of the series) unless noted.
Source text: Assay Submitter (PI): James Inglese Ph.D., Patricia Dranchak Ph.D., Mahesh Aitha Ph.D. Assay Development and Screening Technology Laboratory (ADST) National Center for Advancing Translational Sciences (NCATS), Rockville, MD National Institute of Health (NIH), Bethesda, Maryland The metallo-beta-lactamases (MBL) are a main antibiotic resistance mechanism evolved by bacteria. There is an urgent clinical need for MBL inhibitors to mitigate this growing threat. To support a machine-based learning study, qHTS has been used to experimentally test inhibitors identified by prediction tools.
PROTOCOL TABLE (as described by Inglese et al., 2007) SEQUENCE No. (e.g., 1, 2, 3, etc.); […] (e.g., enzyme, Incubation, Reagent, etc.); VALUE; DESCRIPTION 1; NDM-1; 4 uL of 3 nM enzyme [2 nM final] in 50 mM HEPES (pH 7.0), 1 uM […], 0.01% Tween20; Use BioRaptr to dispense into Aurora black, clear bottom low base 1536-well plates 2; Compounds; 23 nL; Use Pin Tool (Wako) to transfer DMSO control and library compounds in DMSO 3; Incubate; >30 min 4; Reagent; 2 uL of 150 uM meropenem [50 uM final] 5; Incubate; 30 min. 6; Detector; Absorbance at 300 nm (bandwidth = 5 nm, 25 flashes/well) on Tecan Infinity NOTES (numbers refer to sequence above) 1; Column 1 of each plate received assay buffer without enzyme and columns 2-48 received enzyme for a final assay concentration of 2 nM. 2; Control plate contained DMSO in columns 1, 2, 3, and 4. 3; Compound interaction with enzyme. 4; Meropenem substrate was prepared in the same assay buffer as step 1 for a final assay concentration of 50 uM and added to all wells across the assay plates. 5; Substrate interaction with enzyme, plateau phase of kinetics. 6; Default reader settings were applied for absorbance read at 300 nm, bandwidth = 5 nm, 25 flashes/well. References: Inglese J, Shamu CE, Guy RK. 2007. Reporting data from high-throughput screening of small-molecule libraries. Nat Chem Biol. doi:10.1038/nchembio0807-438 Yasgar A, Shinn P, Jadhav A, Auld D, Michael S, Zheng W, Austin CP, Inglese J, Simeonov A. 2008. Compound Management for Quantitative High-Throughput Screening. J Lab Autom 13:79 - 89. doi:10.1016/j.jala.2007.12.004
Also: % of control where 0% means no effect.

SMILES | activity % (negative = inhibition)
Cc1nn(C(=O)CCC(=O)N2CCC(Cc3nncn3CC3CC3)CC2)c2ccccc12 | inactive: 6.68%
O=C(Nc1ccc(F)c(Cl)c1)c1cnc(-c2ccccc2)nc1-c1ccncc1 | inactive: 16.8%
CC1(C)C(=O)N(Cc2ccccc2F)[C@H]2CN(C3CCOCC3)C[C@H]2[S+]1(=O)[O-] | inactive: 4.1% [at 57.5 µM]
CCN(CC)Cc1cnc2c(C(=O)NC3(C(N)=O)CCCC3)cnn2c1 | inactive: 0.0167%
COc1ccc(CN2CCC([C@@H]3CNC[C@H]3CO)CC2)c(Cl)c1OC | inactive: -2.45%
FC(F)(F)c1cccc(C2=NOC3(CCN(Cc4ccccc4)CC3)C2)c1 | inactive: 1.91%
CCc1noc([C@@H]2CC(F)(F)CN2C(=O)CCn2cc(C)cn2)n1 | inactive: 2.72%
COC1CN(c2cccc(F)c2)C12CCN(C(=O)CC1CCCCC1)CC2 (stereo not drawn) | inactive: 16.3%
COc1cc(C(=O)N[C@@H]2[C@@H](c3ccccc3)[C@@H](CO)N3CCCC[C@H]23)cc(OC)c1OC | inactive: 15.3%
O=S(=O)(Cc1noc([C@@H]2C[C@@H](O)CN2CC2CC2)n1)c1ccc(F)cc1 | inactive: -0.858% [at 57.5 µM]
COCC(=O)NC[C@H]1CCN(Cc2ccc(Br)o2)C[C@H]1N(C)C | inactive: 6.59%
NCc1cccc(-c2cncnc2)c1 | inactive: 3.11% [at 57.5 µM]
Cc1ccc(C#N)c(-c2cc(NCc3cccnc3)nc3[nH]ccc23)n1 | inactive: 0.724%
O=C1CO[C@H]2CCN(Cc3ccc4c(c3)CCO4)CC[C@@H]2N1Cc1ccccc1 | inactive: -3.43% [at 57.5 µM]
COc1ccccc1-c1[nH]nc2ncc(C(=O)N3C[C@@H](C)O[C@@H](C)C3)nc12 | inactive: 5.6% [at 57.5 µM]
O=C(C1CC2(CCNCC2)CN1)N1CCC(c2nc3ccccc3[nH]2)CC1 (stereo not drawn) | inactive: -3.12%
O=C1CCN(S(=O)(=O)c2ccccc2)CCCN(C(=O)c2c[nH]c3ccccc23)CCN1 | inactive: 29.4%
CC1=C[C@@H](CNS(=O)(=O)c2cccc(C#N)c2)[C@H](C(C)C)C[C@H]1CC(=O)N(C)Cc1cccnc1 | inactive: -3.82%
COc1ccccc1-c1ccc(C(=O)N2CCC(NC(=O)Cc3ccc(F)cc3)CC2)cc1 | inactive: 0.473%
COc1ccc(CC2CN(Cc3cccc(-n4cccn4)c3)CCO2)cc1 (stereo not drawn) | inactive: -0.751%
COCCn1c(=O)c(C(=O)N2CCN(C(C)=O)CC2)nc2cccnc21 | inactive: 4.52%
O=C(NCC1CN(Cc2cccc(O)c2)CC12CN(c1ccccc1)C2)c1ccccc1 (stereo not drawn) | inactive: -0.104% [at 57.5 µM]
COc1ccccc1CCC(=O)N1c2ccccc2CC1c1nc(C2CC2)no1 (stereo not drawn) | inactive: -1.88%
O=C(O)Cc1cccn1-c1ccc(Cl)cc1 | inactive: -8.23%
Cn1cc(CN2C[C@H](C(=O)Nc3ccn(C)n3)C[C@@H]2c2cccc(C(F)(F)F)c2)cn1 | inactive: -1.49% [at 57.5 µM]
CC1CCCN(C(=O)c2coc(COc3cccc(F)c3F)n2)C1 (stereo not drawn) | inactive: -4.78%
CC(C)CCN1C(=O)CC[C@H]2CN(C(=O)Cn3ccc(=O)[nH]c3=O)CC[C@H]21 | inactive: -1.24%

Three structures out of the list, sorted by length of the SMILES, rising.
SMILES | activity % (negative = inhibition)
O=C(O)Cc1cccn1-c1ccc(Cl)cc1 | inactive: -8.23%
FC(F)(F)c1cccc(C2=NOC3(CCN(Cc4ccccc4)CC3)C2)c1 | inactive: 1.91%
COc1cc(C(=O)N[C@@H]2[C@@H](c3ccccc3)[C@@H](CO)N3CCCC[C@H]23)cc(OC)c1OC | inactive: 15.3%

Following part.

SMILES | activity % (negative = inhibition)
CCOCCOC1CCN(C(=O)c2nn(C)c3ccccc23)CC1 | inactive: 12%
CC(C)c1nc(-c2ccc(OC3CCN(C(=O)c4n[nH]c5ccccc45)C3)cc2)no1 (stereo not drawn) | inactive: 8.75%
O=C(c1ccc(Br)o1)N1CCC(c2n[nH]c(=O)n2Cc2ccc(F)cc2)CC1 | inactive: -6.15%
COc1ccc(CN2CCC(N3CCOC3=O)CC2)cc1 | inactive: 5.85%
COc1cc(NC(=O)CCC2CCCN(C(=O)CCN3CCCCO3)C2)cc(OC)c1 (stereo not drawn) | inactive: 8.56%
O=C(c1cccnc1)N1CCN(c2cc(-c3ccccc3)[nH]n2)CC1 | inactive: -7.54%
O=S(=O)(c1ccccc1)N1CC(Oc2ccc(-c3noc(C4CC4)n3)cc2)C1 | inactive: -0.784%
COCCN1CCCC1c1nc(C2CN(S(=O)(=O)c3cccc(OC)c3)C2)no1 (stereo not drawn) | inactive: 7.75%
O=C(N[C@@H]1CCOC[C@H]1Oc1cccc(F)c1)c1cnc2ccccn2c1=O | inactive: -1.67%
CCc1cccc2c(C(CC(=O)N3CCCCC3)c3cccc(OC)c3)c[nH]c12 (stereo not drawn) | inactive: 15.2%
O=C(NC1CCN(c2nc3ncccc3o2)C1)c1ccccc1F (stereo not drawn) | inactive: 2% [at 57.5 µM]
CCCCN1C(=O)CC[C@H]2CN(C(=O)CCn3cccc3)CC[C@H]21 | inactive: -0.184%
O=C(NC1CCc2n[nH]c(=O)n2CC1)c1ccc(Cn2ccnc2)o1 (stereo not drawn) | inactive: -6.33%
CCN(CC)C(=O)[C@@H]1C[C@@H](n2cc(Cn3c(C)nc4ccccc43)nn2)CN1 | inactive: 7.7%
Cc1noc(C)c1-c1cc2cc(CO)oc2c(-c2ccc([S+](C)(=O)[O-])cc2)n1 | inactive: 11.9% [at 57.5 µM]
CNC(=O)N1CCC(C2CCN(C(=O)c3cnccc3C)C2)CC1 (stereo not drawn) | inactive: 2.76%
CCc1noc(-c2cn(C3CCN(C(=O)C4(c5ccccc5)CC4)C3)nn2)n1 (stereo not drawn) | inactive: 6.75%
NC(=O)C1(N2CCCCC2)CCN(c2nccc(-c3ccncc3)n2)CC1 | inactive: 22.1%
O=C(CCc1c[nH]c2ccccc12)NC1CCc2n[nH]c(=O)n2CC1 (stereo not drawn) | inactive: 2.13%
CCN1C(=O)Cc2ccccc2C1C(=O)N(C)Cc1ccco1 (stereo not drawn) | inactive: 6.32%
O=S(=O)(c1cccnc1)N1CC(F)(F)C[C@H]1c1nc(C2CC2)no1 | inactive: -0.53%
Cc1ccccc1-c1nc(Cn2ccnc2C(C)C)c(C)o1 | inactive: 13.6%
COc1cccc(C(=O)N2CC3(Cc4ccccc4CN3[S+](C)(=O)[O-])C2)c1 | inactive: 0.91%
CC1(C)C(=O)N(CC2CCOCC2)[C@H]2CN(Cc3cccnc3N)C[C@H]2[S+]1(=O)[O-] | inactive: 3.1% [at 57.5 µM]
O=c1cc(N2CCOCC2)oc2c(Nc3ccccc3)nccc12 | inactive: 14.4% [at 57.5 µM]
Cn1c(COc2cccc(CN3CCCC3)c2Cl)nnc1C1CC(N)C1 (stereo not drawn) | inactive: -9.84%

An excerpt of these results, with each value named.
O=S(=O)(c1ccccc1)N1CC(Oc2ccc(-c3noc(C4CC4)n3)cc2)C1
  activity % (negative = inhibition): inactive: -0.784%
NC(=O)C1(N2CCCCC2)CCN(c2nccc(-c3ccncc3)n2)CC1
  activity % (negative = inhibition): inactive: 22.1%
